Values joined by “and” are separate entries in the source; they are usually repeats but may differ in a detail not shown here. Identical values can stand only once. Inconclusive means that the source gave no clear call. Such entries were picked first, then a sample of the others. Where the call is inconclusive, the potency comes from a doubtful curve fit. A note “side channel” means that the fit belongs to a control or component signal, not to the main read-out. Active and inactive are the calls of the source. Calls come from the whole dose curve; as a rule, active = well fitted inhibition curve with a large enough effect in the signal ratio, with a control signal flat (not every such curve was filed as active); inconclusive = small, poorly fitted or top-dose-only effect, or effect the other way, or a change in a side signal; inactive = no such curve, though single readings can be large or run the other way; the % refers to the signal ratio.
What follows are compounds tested against Peroxisome proliferator-activated receptor delta (Homo sapiens) (UniProt Q03181) (assay: qHTS assay for small molecule antagonists of peroxisome proliferator-activated receptor delta signaling (AID 588535)). Conditions: HEK293T PPARd-UAS-bla, beta-lactamase FRET ratio, 18 h; activity change, negative = inhibition: at 76.7 µM (top of the series).
Text: NIH Chemical Genomics Center [NCGC] U.S. Environmental Protection Agency [EPA] National Institutes of Environmental Health Sciences [NIEHS] National Toxicology Program [NTP] NCGC Assay Overview The Peroxisome proliferator-activated receptors (PPARs) are lipid-activated transcription factors of the nuclear receptor superfamily with three distinct subtypes namely PPAR alpha, PPAR delta (also called PPAR beta) and PPAR gamma. All these subtypes heterodimerizes with Retinoid X receptor (RXR) and have different physiological functions. […] This role of PPAR delta implicates the potential use of its ligands in the treatment of metabolic disorders.
NCGC Assay Protocol Summary Using a beta-lactamase reporter-gene under control Peroxisome Proliferator-Activated Receptor delta (PPAR-delta) response element, a cell-based assay [GeneBLAzer (PPAR-delta-UAS-bla assay developed by Invitrogen] was used to measure PPAR-delta ligands signaling. GeneBLAzer PPAR-delta-UAS-bla HEK293T cells were used with assay medium containing 2% charcoal/dextran FBS. The assay was performed in clear bottom black Greiner 1536-well plates. Library compounds were measured for their ability to inhibit the reporter gene activity. Compounds were screened in a titration series in 1536-well format. The fluorescence intensity (405 nm excitation, 460/530 nm emission) was measured using an EnVision plate reader. […] Concentration-response titration points for each compound were fitted to the Hill equation yielding concentrations of half-maximal inhibition (IC50) and maximal response (efficacy) values. qHTS protocol for PPAR-delta beta-lactamase assay in antagonist mode [Step] [Parameter] [Value] [Description] 1. Reagent; 5 uL; 4000 cells/well 2. Incubation; 37 C for 5 hrs 3. Compounds; 23 nL; 0.59 nM to 92 uM 4. […] Incubation; 37 C for 18 hrs 7. Detection reagent; 1 uL of CCF4-dye 8. Incubation; RT for 2 hrs 9. Detection; Fluorescence; Envision plate reader

Sequences of proteins named here, by UniProt entry; tags and fusion partners are left off. A change or cut given only in a name is not applied to a line headed by its entry.
UniProt Q03181: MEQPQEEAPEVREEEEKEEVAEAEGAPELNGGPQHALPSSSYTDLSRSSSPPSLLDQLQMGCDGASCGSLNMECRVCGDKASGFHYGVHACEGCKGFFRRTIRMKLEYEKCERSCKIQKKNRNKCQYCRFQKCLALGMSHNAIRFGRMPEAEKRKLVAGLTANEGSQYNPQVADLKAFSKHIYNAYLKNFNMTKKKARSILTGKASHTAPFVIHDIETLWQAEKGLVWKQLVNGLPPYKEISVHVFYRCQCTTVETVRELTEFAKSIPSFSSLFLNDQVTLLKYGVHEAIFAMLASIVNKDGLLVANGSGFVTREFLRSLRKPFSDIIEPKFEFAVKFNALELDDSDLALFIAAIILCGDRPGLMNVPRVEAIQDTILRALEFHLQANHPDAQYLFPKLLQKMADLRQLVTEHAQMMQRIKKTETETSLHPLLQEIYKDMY

| Compound | activity change, negative = inhibition | Potency |
| --- | --- | --- |
| OCc1c[nH]c2ccccc12 | inconclusive: -8.44% | – |
| CCCCOCCOCCOCc1cc2c(cc1CCC)OCO2 | – | inconclusive: 50.1 µM [side channel, rising, single point] |
| CC(C)(c1ccc(O)cc1)c1ccc(O)cc1 | inconclusive: -39.5% and inconclusive: -32.4% | – |
| CC1=C(/C=C/C(C)=C/C=C/C(C)=C/C(=O)Nc2ccc(O)cc2)C(C)(C)CCC1 | – | inconclusive: 44.7 µM [inhibitor, partial curve, poor fit] |
| NCCNc1cccc2ccccc12 | inconclusive: 4.96% | – |
| O=c1[nH]c(=O)n([C@H]2C[C@H](O)[C@@H](CO)O2)cc1Br | – | inactive |
| Cc1ccccc1C(OCCN(C)C)c1ccccc1 (configuration not stated) | – | inactive |
| CCCCCCCCCCCCCC(=O)OC(C)C | inconclusive: 5.52% | – |
| Nc1nc(N)c2nc(-c3ccccc3)c(N)nc2n1 | inconclusive: 208% | inconclusive: 39.8 µM [fluorescent, side channel, partial curve] |
| Cc1cc(C(C)(C)C)c(O)c(C(C)(C)C)c1 | inconclusive: -20% | – |
| C#C[C@]1(O)CC[C@H]2[C@@H]3CCC4=Cc5oncc5C[C@]4(C)[C@H]3CC[C@@]21C | – | inconclusive: 44.7 µM [activator, partial curve, poor fit] |
| CC(=O)OC/C=C(C)/C=C/C=C(C)/C=C/C1=C(C)CCCC1(C)C | inconclusive: 25.3% | – |
| COC(=O)[C@H]1[C@H]2C[C@@H]3c4[nH]c5cc(OC)ccc5c4CCN3C[C@H]2C[C@@H](OC(=O)c2cc(OC)c(OC)c(OC)c2)[C@@H]1OC | – | inconclusive: 35.5 µM [fluorescent, side channel, partial curve] and inconclusive: 22.4 µM [fluorescent, side channel, full curve, poor fit] |
| Cc1cc(=O)[nH]c(=S)[nH]1 | – | inconclusive: 50.1 µM [side channel, rising, single point] |
| CCCCCCCCCCCC[N+](C)(C)Cc1ccccc1 | – | inactive |
| CC(=O)O[C@]1(C(C)=O)CC[C@H]2[C@@H]3C=C(Cl)C4=CC(=O)[C@@H]5C[C@@H]5[C@]4(C)[C@H]3CC[C@@]21C | – | inconclusive: 50.1 µM [fluorescent, side channel, single point] and inconclusive: 7.94 µM [fluorescent, side channel, partial curve, poor fit] |
| COC1=CC(=O)C[C@@H](C)[C@]12Oc1c(Cl)c(OC)cc(OC)c1C2=O | inconclusive: -84.3% | – |
| Nc1nc(Cl)nc2c1ncn2[C@H]1C[C@H](O)[C@@H](CO)O1 | – | inconclusive: 31.6 µM [activator, partial curve, poor fit] |
| COc1ccccc1O | inconclusive: -30.2% | – |
| C=C[C@@]1(C)CC(=O)[C@]2(O)[C@@]3(C)[C@@H](O)CCC(C)(C)[C@@H]3[C@H](O)[C@H](OC(C)=O)[C@@]2(C)O1 | inconclusive: 27.1% | – |

Same assay, conditions: HEK293T PPARd-UAS-bla, beta-lactamase FRET ratio, 18 h; at 76.7 µM (top of the series)

| Compound | activity change, negative = inhibition |
| --- | --- |
| NCCNc1cccc2ccccc12 | inactive: -20.2% |

Reference: PubChem BioAssay (NCATS)
